# According to the supplement of paper PMC12823440, “Inhibitors supercharge kinase turnover through native proteolytic circuits” (Nature, 2025):
# Amino acid sequences for entries named in this document (tags omitted).
# UniProt P31152, whole entry: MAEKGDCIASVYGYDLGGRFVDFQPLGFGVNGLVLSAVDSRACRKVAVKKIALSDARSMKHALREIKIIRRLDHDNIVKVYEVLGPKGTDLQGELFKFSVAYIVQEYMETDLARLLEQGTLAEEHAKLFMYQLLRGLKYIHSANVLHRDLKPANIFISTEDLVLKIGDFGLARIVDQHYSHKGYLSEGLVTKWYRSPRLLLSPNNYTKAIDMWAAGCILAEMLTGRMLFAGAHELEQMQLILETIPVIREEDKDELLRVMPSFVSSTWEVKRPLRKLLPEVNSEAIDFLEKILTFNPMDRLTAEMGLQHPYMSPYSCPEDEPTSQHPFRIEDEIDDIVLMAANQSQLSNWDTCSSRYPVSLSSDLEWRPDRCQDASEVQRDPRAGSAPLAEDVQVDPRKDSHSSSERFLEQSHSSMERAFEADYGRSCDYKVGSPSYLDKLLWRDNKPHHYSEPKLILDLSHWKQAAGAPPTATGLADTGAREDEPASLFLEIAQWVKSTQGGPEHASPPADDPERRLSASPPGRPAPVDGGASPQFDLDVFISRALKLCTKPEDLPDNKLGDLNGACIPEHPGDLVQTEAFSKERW
# UniProt P49137, whole entry, looked up: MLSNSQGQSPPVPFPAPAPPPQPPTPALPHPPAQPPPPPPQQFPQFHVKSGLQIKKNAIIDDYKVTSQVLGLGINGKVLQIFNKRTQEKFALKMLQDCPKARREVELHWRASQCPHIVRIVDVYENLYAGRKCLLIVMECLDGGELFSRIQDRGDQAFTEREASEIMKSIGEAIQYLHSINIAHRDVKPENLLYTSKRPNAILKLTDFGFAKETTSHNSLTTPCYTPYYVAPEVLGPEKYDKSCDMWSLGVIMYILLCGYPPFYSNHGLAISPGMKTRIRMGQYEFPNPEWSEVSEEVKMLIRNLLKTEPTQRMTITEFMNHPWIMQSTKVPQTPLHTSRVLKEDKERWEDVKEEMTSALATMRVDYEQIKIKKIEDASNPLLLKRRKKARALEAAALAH
# The other results are listed elsewhere or left out. The calls rarely recur for the same compound in another form.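 Kinases, fused to nanoluciferase, were expressed in K562 cells; luminescence was measured every 4 h from 2 to 18 h as percent of control (DMSO = 100%, positive control = 0%). A time point is decreased if signal falls significantly (2 sigma). Hits were called by the authors by a rule that is not shown; the count of time points alone does not decide it.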
# Target: MAPK4 (UniProt P31152)
# Assay: number of time points (of 5) at which kinase-Nluc abundance scored as decreased, DMSO-normalised (count); higher = more persistent destabilization
# Conditions: K562; 2-18 h
row,SMILES,number of time points
1,COC(=O)Nc1ccc(-c2nc(N3CCOCC3)c3cnn(C4CCN(Cc5cccnc5)CC4)c3n2)cc1 (10 µM),0
2,N[C@@H]1CCCN(c2c(/C=C3\SC(=O)NC3=O)cccc2-c2ccccc2)C1 (10 µM),0
3,Nc1nc(N)c2nc(-c3cccc(O)c3)c(-c3cccc(O)c3)nc2n1 (10 µM),0
4,Cn1ncc(NC(=O)c2nc(-c3c(F)cccc3F)sc2N)c1N1CC[C@@H](N)[C@H](F)CC1 (10 µM),0
5,C=C1C(=O)[C@@]23[C@H](O)C[C@@H]4C(C)(C)C(=O)CC[C@@]4(C)[C@@H]2CC[C@@H]1[C@H]3O [Glaucocalyxin A] (2.5 µM),0
6,O=C(NCCO)c1cc(C(=O)NCCO)cc(C(=O)NCCO)c1 (10 µM),0
7,CCC(=O)Nc1cccc(Oc2nc(Nc3ccc(N4CCN(C)CC4)cc3OC)ncc2Cl)c1 (10 µM),0
8,Cc1nn(C)cc1-c1nc2c(N3CCN(Cc4ccc(Cl)cc4)CC3)c(Cl)cnc2[nH]1 (10 µM),0
9,CC(C)Oc1ccc(F)c(-c2cnc(N)c(C(=O)Nc3cnccc3N3CCC[C@@H](C(=O)O)C3)n2)c1 (2 µM),0
10,Nc1ncc(C(=O)NC2CN(C(=O)C3CC3)C2)c2ccc(-c3cccc(F)c3)nc12 (2 µM),0
11,O=C(ON=C1c2ccccc2-c2nc3ccccc3nc21)c1ccco1 (2.5 µM),0
12,CC(C)=CC[C@@H](O)C1=CC(=O)c2c(O)ccc(O)c2C1=O [Shikonin] (10 µM),0
13,COC(=O)Nc1ccc(-c2nc(N3CCOCC3)c3cnn(C4CCN(C(=O)OC)CC4)c3n2)cc1 (10 µM),0
14,CNC(=O)c1ccc2c(c1)ncn2-c1ccc(CC(=O)OC(C)(C)C)cc1 (10 µM),0
15,O=C1CC[C@H](NC(=O)Cc2ccccc2)C(=O)N1 [Antineoplaston A10] (10 µM),0
16,COCCOCCc1c(C)c2cc(OC)c(O)c(C=O)c2oc1=O (10 µM),0
17,Cc1ccc(C(=O)NC2CC2)cc1-n1ncc(C(=O)c2cccc(C#N)c2)c1N [Acumapimod] (10 µM),0
18,O=C(NCCN1CCOCC1)Nc1nc2ccc(Sc3nnc4ccc(-c5ccc(F)cc5)nn34)cc2s1 (10 µM),0
19,COc1cc(F)ccc1-c1ncnc(Nc2cccc(C[S@](C)(=N)=O)c2)n1 [Atuveciclib] (2.5 µM),2
20,CCn1c(-c2nonc2N)nc2c(C#CC(C)(C)O)ncc(OC[C@H]3CCCNC3)c21 (10 µM),0
21,O=c1[nH]ccc2nc(-c3ccc(CN4CCC(c5nc(-c6ccccn6)n[nH]5)CC4)cc3)c(-c3ccccc3)cc12 (10 µM),0
22,COCCOc1ccc2c(c1)ncn2-c1ccc2cccc(N3CCC(N)CC3)c2n1 (10 µM),0
23,CN1CCC(CNc2ccc3ncc(-c4cccc(OC(F)(F)F)c4)n3n2)CC1 (2.5 µM),0
24,Cc1cc(C(=O)NC(C)(C)C)cc(C#Cc2ccc3c4c(oc3c2)C(C)(C)c2cc(NS(C)(=O)=O)ccc2C4=O)n1 (10 µM),0
25,CC(O)(C#Cc1ccc2c(c1)N(c1nc(N)ncc1Cl)CC2)c1nccs1 (stereo not given) (2.5 µM),0
26,COc1cc(-c2cc(-c3ccc(N4CCNCC4)cc3)cnc2C)cc(OC)c1OC (10 µM),0
27,Cn1c(CNc2cccc(C(=O)NCc3ccccc3C(F)(F)F)c2)nnc1-c1ccncc1 (10 µM),0

# Target: MAPKAPK2 (UniProt P49137)
# Assay: as above
# Conditions: K562; 2-18 h
row,SMILES,number of time points
1,O=Nc1c(-c2c(O)[nH]c3cc(Br)ccc23)[nH]c2ccccc12 [GSK 3 Inhibitor IX] (2.5 µM),0
2,Cn1c2cc([S+](C)[O-])sc2c2cnn(Cc3cccc(N)c3)c(=O)c21 (stereo not given) (2.5 µM),0
3,Cc1cc(-n2c(=O)ccc3c[nH]c4nccc-4c32)ccc1F (10 µM),0
4,CCCn1/c(=N/C(=O)c2cccc(C(N)=O)c2)[nH]c2ccccc21 [Takinib] (10 µM),0
5,CO[C@H]1C[C@@H]2CC[C@@H](C)[C@@](O)(O2)C(=O)C(=O)N2CCCC[C@H]2C(=O)O[C@H]([C@H](C)C[C@@H]2CC[C@@H](OCCO)[C@H](OC)C2)CC(=O)[C@H](C)/C=C(\C)[C@@H](O)[C@@H](OC)C(=O)[C@H](C)C[C@H](C)/C=C/C=C/C=C/1C [Everolimus] (10 µM),0
6,Cc1cccc(-c2[nH]ncc2-c2ccnc3ccccc23)n1 (10 µM),0
7,CC1(N)CCN(c2cccnc2NC(=O)c2nc(-c3ncccc3C(F)(F)F)cnc2N)CC1 [Darovasertib] (10 µM),0
8,COc1cc2c(cc1Nc1ncc(C(N)=O)c(Nc3c(F)cccc3C(F)(F)F)n1)CN(C)CC2 (2.5 µM),0
9,COc1cc2ncnc(Nc3ccc(O)c(Br)c3)c2cc1OC (10 µM),0
10,Nc1nc2c(nc(Br)n2[C@@H]2O[C@@H]3COP(=O)(O)O[C@H]3[C@H]2O)c(=O)[nH]1 [8-Bromo-cGMP (sodium)] (10 µM),0
11,O=c1c2c([nH]n1-c1nc3ccccc3s1)CCCC2 (10 µM),0
12,COC(=O)Nc1ccc(-c2nc(N3CCOCC3)c3cnn(C4CCN(Cc5cccnc5)CC4)c3n2)cc1 (10 µM),0
13,N[C@@H]1CCCN(c2c(/C=C3\SC(=O)NC3=O)cccc2-c2ccccc2)C1 (10 µM),0
14,Nc1nc(N)c2nc(-c3cccc(O)c3)c(-c3cccc(O)c3)nc2n1 (10 µM),0
15,Cn1ncc(NC(=O)c2nc(-c3c(F)cccc3F)sc2N)c1N1CC[C@@H](N)[C@H](F)CC1 (10 µM),0
16,C=C1C(=O)[C@@]23[C@H](O)C[C@@H]4C(C)(C)C(=O)CC[C@@]4(C)[C@@H]2CC[C@@H]1[C@H]3O [Glaucocalyxin A] (2.5 µM),0
17,O=C(NCCO)c1cc(C(=O)NCCO)cc(C(=O)NCCO)c1 (10 µM),0
18,CCC(=O)Nc1cccc(Oc2nc(Nc3ccc(N4CCN(C)CC4)cc3OC)ncc2Cl)c1 (10 µM),0
19,Cc1nn(C)cc1-c1nc2c(N3CCN(Cc4ccc(Cl)cc4)CC3)c(Cl)cnc2[nH]1 (10 µM),0

row,SMILES,number of time points
1,CC(C)Oc1ccc(F)c(-c2cnc(N)c(C(=O)Nc3cnccc3N3CCC[C@@H](C(=O)O)C3)n2)c1 (2 µM),0
2,Nc1ncc(C(=O)NC2CN(C(=O)C3CC3)C2)c2ccc(-c3cccc(F)c3)nc12 (2 µM),0
3,O=C(ON=C1c2ccccc2-c2nc3ccccc3nc21)c1ccco1 (2.5 µM),0
4,CC(C)=CC[C@@H](O)C1=CC(=O)c2c(O)ccc(O)c2C1=O [Shikonin] (10 µM),0
5,COC(=O)Nc1ccc(-c2nc(N3CCOCC3)c3cnn(C4CCN(C(=O)OC)CC4)c3n2)cc1 (10 µM),0
6,CNC(=O)c1ccc2c(c1)ncn2-c1ccc(CC(=O)OC(C)(C)C)cc1 (10 µM),0
7,O=C1CC[C@H](NC(=O)Cc2ccccc2)C(=O)N1 [Antineoplaston A10] (10 µM),0
8,COCCOCCc1c(C)c2cc(OC)c(O)c(C=O)c2oc1=O (10 µM),0
9,Cc1ccc(C(=O)NC2CC2)cc1-n1ncc(C(=O)c2cccc(C#N)c2)c1N [Acumapimod] (10 µM),0
10,O=C(NCCN1CCOCC1)Nc1nc2ccc(Sc3nnc4ccc(-c5ccc(F)cc5)nn34)cc2s1 (10 µM),0
11,COc1cc(F)ccc1-c1ncnc(Nc2cccc(C[S@](C)(=N)=O)c2)n1 [Atuveciclib] (2.5 µM),0
12,CCn1c(-c2nonc2N)nc2c(C#CC(C)(C)O)ncc(OC[C@H]3CCCNC3)c21 (10 µM),0
13,O=c1[nH]ccc2nc(-c3ccc(CN4CCC(c5nc(-c6ccccn6)n[nH]5)CC4)cc3)c(-c3ccccc3)cc12 (10 µM),0
14,COCCOc1ccc2c(c1)ncn2-c1ccc2cccc(N3CCC(N)CC3)c2n1 (10 µM),0
15,CN1CCC(CNc2ccc3ncc(-c4cccc(OC(F)(F)F)c4)n3n2)CC1 (2.5 µM),0
16,Cc1cc(C(=O)NC(C)(C)C)cc(C#Cc2ccc3c4c(oc3c2)C(C)(C)c2cc(NS(C)(=O)=O)ccc2C4=O)n1 (10 µM),0
17,CC(O)(C#Cc1ccc2c(c1)N(c1nc(N)ncc1Cl)CC2)c1nccs1 (stereo not given) (2.5 µM),0
18,COc1cc(-c2cc(-c3ccc(N4CCNCC4)cc3)cnc2C)cc(OC)c1OC (10 µM),0
19,Cn1c(CNc2cccc(C(=O)NCc3ccccc3C(F)(F)F)c2)nnc1-c1ccncc1 (10 µM),0
